In the supplement of paper PMC5249140, “Delineating Substrate Diversity of Disparate Short-Chain Dehydrogenase Reductase from Debaryomyces hansenii” (PLoS ONE, 2017):
Most values come without repeats; read them as rough.

Each molecule was assayed on DHK short-chain dehydrogenase reductase (Debaryomyces hansenii, Q6BTD7) (assay: apparent turnover number kcat for ketone reduction (NADPH consumption, 100 uM substrate) (s-1); higher = faster reduction of the ketone by the enzyme). Conditions: substrate concentration 100 µM; NADPH 100 µM; pH 7.4; 25 °C.
Procedure: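 Purified N-His6 DHK (unannotated SDR, Debaryomyces hansenii) was screened against a prochiral ketone library: 100 uM substrate, 100 uM NADPH, 1% BSA, 4% DMSO in 100 mM sodium phosphate / 100 mM NaCl pH 7.4 at 25 C, ~27 nM enzyme. Rate was followed by NADPH depletion at 340 nm and reported as apparent kcat (s-1) at a single substrate concentration; no replicates stated.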
In the case of `O=C(CN(C(=O)c1ccccc1)N1C(=O)CCC1=O)c1ccccc1`, the “apparent turnover number kcat” value is reported as 4.34.
With `C=CCN1C(=O)C(O)=C(C(=O)c2ccc(Cl)cc2)C1c1ccc([N+](=O)[O-])cc1` (stereo not given) the “apparent turnover number kcat” value was 6.51.
`CC(=O)N(C1=C(Cl)C(=O)c2ccccc2C1=O)c1cccc(Cl)c1` was tested, and the “apparent turnover number kcat” value was 5.07.
In the case of `O=C1CCC(C(=O)OCC(=O)c2ccc3c(c2)NC(=O)CO3)=NN1`, the “apparent turnover number kcat” value is reported as 3.53.
With `CC(=O)c1ccc(NCN2C(=O)c3ccc([N+](=O)[O-])cc3C2=O)cc1` the “apparent turnover number kcat” value was 3.34.
For `Cc1ccc(Nc2cc(N(C)C)c3noc4c3c2C(=O)c2ccccc2-4)cc1`, the “apparent turnover number kcat” value was 4.89.
`O=C(CSc1nnc(-c2cccnc2)o1)c1ccc(Cl)cc1` was tested, and the “apparent turnover number kcat” value was 2.98.
`Cc1ccc(O)c(C(=O)c2cc(C#N)c(=O)n(-c3ccccc3C)c2)c1` was tested, and the “apparent turnover number kcat” value was -0.0132.
`COc1cc(C(C)=O)ccc1Oc1ncnc(N)c1[N+](=O)[O-]` was tested, and the “apparent turnover number kcat” value was 5.71.
With `CC1C(=O)C(C)C(c2ccccc2O)NC1c1ccccc1O` (stereo not given) the “apparent turnover number kcat” value was 0.0454.
With `O=C(CSc1nc(-c2ccc([N+](=O)[O-])cc2)c[nH]1)c1ccc(O)c(O)c1` the “apparent turnover number kcat” value was 5.56.
For `O=C(CCN1C(=O)c2ccccc2C1=O)OCC(=O)c1ccc[nH]1`, the “apparent turnover number kcat” value was 5.32.
In the case of `N#Cc1cc(C#N)c(SCC(=O)c2ccc(F)cc2)nc1N`, the “apparent turnover number kcat” value is reported as 3.8.
In the case of `Cc1cc(C(=O)n2cc(C(=O)c3ccccc3O)cn2)c(C)o1`, the “apparent turnover number kcat” value is reported as 7.07.
With `O=C(Cn1cnc2c(nnn2Cc2ccccc2)c1=O)c1ccccc1` the “apparent turnover number kcat” value was 5.19.
In the case of `Cc1cnc(C(=O)OCC(=O)c2ccc3c(c2)CCCC3)cn1`, the “apparent turnover number kcat” value is reported as 4.56.
`O=C1NC2=C(C(=O)CCC2)C(c2ccc(OC(F)F)cc2)N1` (stereo not given) was tested, and the “apparent turnover number kcat” value was 0.0442.
With `CC(=O)c1cccc(N(CC(=O)Nc2ccc(I)cc2C)S(C)(=O)=O)c1` the “apparent turnover number kcat” value was 3.99.
With `CC1(C)CC(=O)c2c(oc3ccc(NS(=O)(=O)c4cc([N+](=O)[O-])ccc4Cl)cc23)C1` the “apparent turnover number kcat” value was 4.81.
In the case of `O=C(COC(=O)c1cccnc1)c1ccc(Cl)cc1`, the “apparent turnover number kcat” value is reported as 6.6.
`CCCOc1ccc(C2CC(=O)NC3=C2C(=O)CCC3)cc1` (stereo not given) was tested, and the “apparent turnover number kcat” value was 4.69.
In the case of `O=C(COC(=O)c1ccc(Cl)s1)c1cc2ccccc2o1`, the “apparent turnover number kcat” value is reported as 4.88.
With `O=C(CSc1nnnn1C1CCCC1)c1ccc2c(c1)OCO2` the “apparent turnover number kcat” value was 0.674.
In the case of `CC(=O)c1cccc(S(=O)(=O)Nc2cccnc2)c1`, the “apparent turnover number kcat” value is reported as 4.62.
With `O=C([O-])CN1C(=O)c2ccc(C(=O)c3cccc([N+](=O)[O-])c3)cc2C1=O` the “apparent turnover number kcat” value was 3.5.
For `CC(C)CCN1C(=O)c2ccc(C(=O)c3cccc([N+](=O)[O-])c3)cc2C1=O`, the “apparent turnover number kcat” value was 5.74.
In the case of `Cn1c(N)c(C(=O)CSc2nnc(-c3ccc4c(c3)OCO4)o2)c(=O)n(C)c1=O`, the “apparent turnover number kcat” value is reported as 3.13.
`O=C(CSc1nnnn1C1CCCC1)c1ccc2c(c1)CCC2` was tested, and the “apparent turnover number kcat” value was 3.81.
`CCOc1cc(C2C3=C(CCCC3=O)Nc3[nH]c(=O)[nH]c(=O)c32)ccc1O` (stereo not given) was tested, and the “apparent turnover number kcat” value was 5.96.
In the case of `Cc1ccc(OCC(=O)c2ccc3c(c2)CCC3)c([N+](=O)[O-])n1`, the “apparent turnover number kcat” value is reported as 5.02.
For `Cc1cc(C)c2c(O)nc(SCC(=O)c3ccc(O)c(O)c3)nc2n1`, the “apparent turnover number kcat” value was 0.0624.
With `O=C(CN1C(=O)c2ccc([N+](=O)[O-])cc2C1=O)c1ccc(Cl)s1` the “apparent turnover number kcat” value was 5.18.
For `Cc1cc(C(=O)COC(=O)C2COc3ccccc3O2)c(C)n1C` (stereo not given), the “apparent turnover number kcat” value was 3.72.
In the case of `CC(=O)c1cccc(-n2nnn(C3CC(=O)C4OCC3O4)c2=S)c1` (stereo not given), the “apparent turnover number kcat” value is reported as 2.95.
`CCc1c(C#N)c(SCC(=O)c2ccc(C)c(C)c2)nc2c1C(=O)CC(C)(C)C2` was tested, and the “apparent turnover number kcat” value was 5.04.
For `COc1cccc(NC(=O)CC(=O)c2ccc([N+](=O)[O-])cc2)c1`, the “apparent turnover number kcat” value was 4.88.
In the case of `N#Cc1nc2ccccc2n1CC(=O)c1ccc2c(c1)OCCO2`, the “apparent turnover number kcat” value is reported as 5.24.
In the case of `Cc1c(NC(=O)CN2C(=O)C(=O)c3ccccc32)c(=O)n(-c2ccccc2)n1C`, the “apparent turnover number kcat” value is reported as 4.04.
`O=C(CN1C(=O)c2ccccc2C1=O)OCC(=O)c1ccccc1Cl` was tested, and the “apparent turnover number kcat” value was 4.46.
With `COc1cc(C(=O)OCC(=O)c2ccccc2)c([N+](=O)[O-])cc1OC` the “apparent turnover number kcat” value was 4.46.
In the case of `Cc1cccc(-c2nnc(SCC(=O)c3ccc(O)cc3O)n2C)c1`, the “apparent turnover number kcat” value is reported as 5.94.
For `N#Cc1cc(C(=O)c2cc(Cl)ccc2O)cn(-c2ccccc2)c1=O`, the “apparent turnover number kcat” value was 4.7.
With `O=C1C(=O)N(CN2CCN(c3cccc(Cl)c3)CC2)c2ccccc21` the “apparent turnover number kcat” value was 6.23.
`O=C(c1cnc2cc3c(cc2c1)OCO3)c1cc(F)ccc1O` was tested, and the “apparent turnover number kcat” value was 4.67.
In the case of `Cc1cc(-n2c(C)cc(C(=O)Cn3c(=O)cnc4ccccc43)c2C)no1`, the “apparent turnover number kcat” value is reported as 2.48.
In the case of `O=C(CSc1nnnn1-c1cccc2ccccc12)c1ccc(O)c(O)c1`, the “apparent turnover number kcat” value is reported as 6.4.
For `CC(=O)C1=C(O)C(=O)N(c2cccc(C)c2)C1c1cccc([N+](=O)[O-])c1` (stereo not given), the “apparent turnover number kcat” value was 5.66.
In the case of `CCOC(=O)C1=C(C)NC2=C(C(=O)CC(C)(C)C2)C1c1cc([N+](=O)[O-])c(C)s1` (stereo not given), the “apparent turnover number kcat” value is reported as 4.3.
With `CC(=O)c1cccc(OC(C)C(=O)Nc2ccc3c(c2)OCCO3)c1` (stereo not given) the “apparent turnover number kcat” value was 5.65.
For `O=C(Nc1ccc2ccccc2c1)C(=O)C1C(=O)Nc2ccccc21` (stereo not given), the “apparent turnover number kcat” value was 3.81.
For `O=C(COC(=O)c1ccco1)c1ccc2ccccc2c1`, the “apparent turnover number kcat” value was 5.08.
For `COc1ccc(OCC(=O)c2ccc(O)c(C)c2O)cc1`, the “apparent turnover number kcat” value was 4.07.
With `CC(=O)c1ccc(S(=O)(=O)Nc2ccccc2C(N)=O)cc1` the “apparent turnover number kcat” value was 4.74.
For `Cn1cccc1C(=O)OCC(=O)c1cc2ccccc2o1`, the “apparent turnover number kcat” value was 4.63.
With `CC(=O)Nc1cccc(C(=O)OCC(=O)c2ccc3c(c2)OCO3)c1` the “apparent turnover number kcat” value was 5.82.
In the case of `CCn1c(=O)[nH]c(=O)c2c(N)c(C(=O)c3ccccc3OC)sc21`, the “apparent turnover number kcat” value is reported as 5.17.
With `CC(=O)c1cccc(S(=O)(=O)Nc2ccccc2CO)c1` the “apparent turnover number kcat” value was 8.14.
For `Cc1[nH]c2ccccc2c1C(=O)COC(=O)C1=NNC(=O)CC1`, the “apparent turnover number kcat” value was 3.76.
With `CN(C(=O)c1ccc2c(c1)S(=O)(=O)c1ccccc1C2=O)c1ccccc1` the “apparent turnover number kcat” value was 6.1.
`O=C(COc1ccc([N+](=O)[O-])cc1)c1ccc(O)cc1O` was tested, and the “apparent turnover number kcat” value was 4.37.
